# Measurements reported in article PMC13484441.
# Results are given in words; binding and its absence hold for the method and conditions named. For part of these data: Binding seen in cells or lysates may run through a third protein. Some binding calls cover weakened binding; strength is not graded here. Sequences can lack the tags named with a protein.
# T1: U2AF1-3XFLAG (endogenously tagged U2AF1) (human (endogenous in HBEC)) (UniProt Q01081)
# T1 sequence: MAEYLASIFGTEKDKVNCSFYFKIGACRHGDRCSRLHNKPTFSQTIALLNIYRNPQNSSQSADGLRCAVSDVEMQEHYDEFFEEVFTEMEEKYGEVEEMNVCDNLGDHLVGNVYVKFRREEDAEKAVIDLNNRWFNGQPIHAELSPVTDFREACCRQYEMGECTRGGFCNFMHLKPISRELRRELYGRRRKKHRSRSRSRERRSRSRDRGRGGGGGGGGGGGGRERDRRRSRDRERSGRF
# T2: 3X-FLAG-U2AF1 (full length, recombinant), Q01081
# T2 chain: T1 sequence
# T3: 3X-FLAG-U2AF1-HALO (recombinant), Q01081
# T3 chain: T1 sequence
# B1: DDX42 (protein, UniProt Q86XP3 1-938)
# chain: MNWNKGGPGTKRGFGFGGFAISAGKKEEPKLPQQSHSAFGATSSSSGFGKSAPPQLPSFYKIGSKRANFDEENAYFEDEEEDSSNVDLPYIPAENSPTRQQFHSKPVDSDSDDDPLEAFMAEVEDQAARDMKRLEEKDKERKNVKGIRDDIEEEDDQEAYFRYMAENPTAGVVQEEEEDNLEYDSDGNPIAPTKKIIDPLPPIDHSEIDYPPFEKNFYNEHEEITNLTPQQLIDLRHKLNLRVSGAAPPRPGSSFAHFGFDEQLMHQIRKSEYTQPTPIQCQGVPVALSGRDMIGIAKTGSGKTAAFIWPMLIHIMDQKELEPGDGPIAVIVCPTRELCQQIHAECKRFGKAYNLRSVAVYGGGSMWEQAKALQEGAEIVVCTPGRLIDHVKKKATNLQRVSYLVFDEADRMFDMGFEYQVRSIASHVRPDRQTLLFSATFRKKIEKLARDILIDPIRVVQGDIGEANEDVTQIVEILHSGPSKWNWLTRRLVEFTSSGSVLLFVTKKANAEELANNLKQEGHNLGLLHGDMDQSERNKVISDFKKKDIPVLVATDVAARGLDIPSIKTVINYDVARDIDTHTHRIGRTGRAGEKGVAYTLLTPKDSNFAGDLVRNLEGANQHVSKELLDLAMQNAWFRKSRFKGGKGKKLNIGGGGLGYRERPGLGSENMDRGNNNVMSNYEAYKPSTGAMGDRLTAMKAAFQSQYKSHFVAASLSNQKAGSSAAGASGWTSAGSLNSVPTNSAQQGHNSPDSPVTSAAKGIPGFGNTGNISGAPVTYPSAGAQGVNNTASGNNSREGTGGSNGKRERYTENRGSSRHSHGETGNRHSDSPRHGDGGRHGDGYRHPESSSRHTDGHRHGENRHGGSAGRHGENRGANDGRNGESRKEAFNRESKMEPKMEPKVDSSKMDKVDSKTDKTADGFAVPEPPKRKKSRWDS
# B2: 6X-HIS-U2AF2 (full length, recombinant), P26368 1-475 (protein)
# chain: MSDFDEFERQLNENKQERDKENRHRKRSHSRSRSRDRKRRSRSRDRRNRDQRSASRDRRRRSKPLTRGAKEEHGGLIRSPRHEKKKKVRKYWDVPPPGFEHITPMQYKAMQAAGQIPATALLPTMTPDGLAVTPTPVPVVGSQMTRQARRLYVGNIPFGITEEAMMDFFNAQMRLGGLTQAPGNPVLAVQINQDKNFAFLEFRSVDETTQAMAFDGIIFQGQSLKIRRPHDYQPLPGMSENPSVYVPGVVSTVVPDSAHKLFIGGLPNYLNDDQVKELLTSFGPLKAFNLVKDSATGLSKGYAFCEYVDINVTDQAIAGLNGMQLGDKKLLVQRASVGAKNATLVSPPSTINQTPVTLQVPGLMSSQVQMGGHPTEVLCLMNMVLPEELLDDEEYEEIVEDVRDECSKYGLVKSIEIPRPVDGVEVPGCGKIFVEFTSVFDCQKAMQGLTGRKFANRVVVTKYCDPDSYHRRDFW
# Columns and labels:
# [1] = target: T1, U2AF1-3XFLAG (endogenously tagged U2AF1) (human (endogenous in HBEC)); test: co-IP; U2AF1-FLAG IP followed by Western blot for DDX42
# [2] = target: T2, 3X-FLAG-U2AF1 (full length, …); test: tandem affinity co-purification (HisTrap IMAC, then anti-FLAG M2 beads); the two subunits co-expressed in Tni-FNL insect cells; lysate loaded on a HisTrap HP column in 500 mM NaCl, eluted with imidazole, then anti-FLAG M2 magnetic beads, eluted with 3xflag peptide; conditions: remark: other sources report otherwise
# [3] = target: T3, 3X-FLAG-U2AF1-HALO (recombinant), Q01081; test: as above; conditions: remark: other sources report otherwise
Binder,binding [1],binding [2],binding [3]
B1,binds,,
B2,,binds,binds
